{"source": "patent US9206463B2", "about": "“Method of testing a disinfectant or antibiotic using phenanthridium derivatives” (Montana State University, priority 2006, dated 2015)", "origin": "cited, not measured here", "system": "wild-type E. coli", "details": "relative to fully permeabilized cells; cited from earlier work", "note": "At least one structure is not confirmed: it was looked up by name or label, or the drawing left a doubt.", "data": [{"smiles": "CC[n+]1c(-c2ccccc2)c2cc(N)ccc2c2ccc(N)cc21", "note": "[EB, ethidium bromide]", "values": [{"measurement": "net uptake by viable cells", "result": "only a few percent of that of fully permeabilized cells"}]}]}
